Publication PMC9614494
No constants are given. Whether binding was seen depends on the method and setting. Binding seen in cells or lysates may run through a third protein. Some binding calls cover weakened binding; strength is not graded here. Tags and fused reporters may be left off the sequences shown.

Protein sequences, listed by entry. Tags and fused reporters are not part of them. Residues count along the entry.
UniProt Q42522, residues 37-472: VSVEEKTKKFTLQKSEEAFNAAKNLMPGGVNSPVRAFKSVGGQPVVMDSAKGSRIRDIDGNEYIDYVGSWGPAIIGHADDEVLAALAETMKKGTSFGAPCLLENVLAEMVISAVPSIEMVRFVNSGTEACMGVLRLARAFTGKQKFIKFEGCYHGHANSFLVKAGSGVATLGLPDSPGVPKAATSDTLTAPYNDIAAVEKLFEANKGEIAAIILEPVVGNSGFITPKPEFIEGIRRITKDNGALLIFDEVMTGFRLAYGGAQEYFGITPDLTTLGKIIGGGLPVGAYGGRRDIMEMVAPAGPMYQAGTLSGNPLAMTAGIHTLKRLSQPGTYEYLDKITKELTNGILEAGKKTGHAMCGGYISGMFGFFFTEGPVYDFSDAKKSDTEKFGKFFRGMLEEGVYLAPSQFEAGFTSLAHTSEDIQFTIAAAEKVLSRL

Target: GSAAT2 (glutamate-1-semialdehyde aminotransferase 2) fused to a half of YFP-Venus (Arabidopsis thaliana) (UniProt Q42522)
Test: split reporter; BiFC with halves of YFP-Venus, transient co-expression in N. benthamiana leaves for 48-72 h in the dark, confocal microscopy; GSAAT-YFPc with GBP-YFPn, HEMA1-YFPn or GSAAT-YFPn

B1: GluTR-binding protein (GBP) fused to the N-terminal half of YFP-Venus (protein, UniProt Q9LU39 43-317)
chain: SVSTTLDTPATASTHKPFPAEVSRSIMELSSVGTLSTLTHDGWPLGVGVRFAVDKDGTPVLCLNRSVSPDKRSALHVQLEQCGLRTPQCTIQGSIGRPGDDTVLKRLSATWREKFGEEVKEDSLYVVAVDRVLQMEDFMEDGIWVASSDYKNASPDPLRDIAEDIVNQINANNMEDIFRFCNVYVDLDFVVSETKMIWMDRLGFDLRVWSPRGVYDVRIPFPMEVTDEKGAKSSFNGMSQLAWEVEKSYCPADFNKVKLLKQVVGSSHSHKGGGQ
  binding: binds
